Broadly, the AC50 is the concentration giving half of the maximal activity seen.

SMILES strings stand for the structures. Some of the results follow. Further columns of the screen follow, without active or inactive calls. The list favours compounds with an active or inconclusive main result. Potencies come from curve fits of mixed quality, noted in brackets.

The assay can be described thus: qHTS Assay for Lipid Storage Modulators in Drosophila S3 Cells.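 As to cell number change: cells counted by Cell Tracker Red CMTPX staining in the red channel.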 As to conditions: BODIPY lipid droplet fluorescence, 18-24 h; for cell number change: measured here: cell count max response, cells fed with added oleic acid. An outline of the steps: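 Laser-scanning cytometry quantifies lipid droplet accumulation (500–530 nm total intensity; droplet/cell object ratio) in oleic acid-fed (400 uM added) Drosophila S3 cells treated with a concentration series. 20 uM Triacsin C defined 100% inhibition.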

[1] abbreviates: measured here: lipid fluorescence (Fed channel) AC50, cells fed with added oleic acid.
The mark [2] stands for this setting: measured here: cell number channel AC50, cells fed with added oleic acid.

As for `O=[N+]([O-])c1ccc(O)c(/C=N/Nc2nc3ccccc3[nH]2)c1`, the cell number change was -14.8%. Moreover, the AC50 under setting [1] was 29.1 µM [falling, single point].
Regarding `CCC(CC)c1nnc(NC(=O)C23CC4CC(CC(NC(C)=O)(C4)C2)C3)s1`, the cell number change was -16.3%. For the same compound, the AC50 under setting [1] was 20 µM [falling, partial curve, poor fit].
For `Cc1cc(C)c(S(=O)(=O)c2c(C)cccc2C)c(Cl)n1`, the cell number change was -41.2%. For the same compound, under setting [2], the AC50 is 11.6 µM [falling, partial curve]. Also, the AC50 under setting [1] is 9.2 µM [falling, partial curve].
In the case of `CCN1C(=O)c2ccccc2S(=O)(=O)c2ccc(C(=O)NCc3cccnc3)cc21`, the cell number change was 34.9%. The AC50 under setting [2] is 29.1 µM [rising, single point].
In the case of `O=C(COC(=O)C1C2CC3OC(=O)C1C3C2)Nc1ccc(Br)cc1` (configuration not stated), the cell number change was -14.3%. Further, under setting [1], the AC50 is 0.184 µM [falling, single point].
As for `O=C(COc1ccc2c(-c3ccccc3)cc(=O)oc2c1)N[C@@H](Cc1c[nH]c2ccc(O)cc12)C(=O)O`, the cell number change came to 23.9%.
Take `Cc1ccc(NC(=O)COc2ncnc3sccc23)cc1S(=O)(=O)N(C)C`: the cell number change was determined as 75.3%. Moreover, the AC50 under setting [2] is 18.4 µM [rising, partial curve].
For the compound `CCN1CCN(C(=O)c2ccc(C)c(S(=O)(=O)Nc3cccc(C)c3)c2)CC1`, the cell number change is 23.2%. The AC50 under setting [1] is 18.4 µM [rising, single point].
With `O=C(NCCC(c1ccccc1)c1ccccc1)c1cnccn1`, the cell number change was 14.7%. For the same compound, the AC50 under setting [1] was 1.03 µM [rising, full curve, poor fit].
`CN(CC(=O)Nc1ccc(S(=O)(=O)N2CCCC2)cc1)CC(=O)Nc1cccc(F)c1`: under setting [1], the AC50 is 29.1 µM [falling, single point].
For `COC(=O)c1cccc(NS(=O)(=O)c2cccs2)c1C`, the cell number change is -1.4%.
Regarding `O=C(CSc1nnc(-c2ccc(C(F)(F)F)cn2)o1)Nc1cccc(Cl)c1`, the cell number change was 10.1%. The AC50 under setting [1] is 0.116 µM [falling, full curve, poor fit].
As to `CCCC(=O)N1CC(=O)Nc2ccc(F)cc2C1c1ccccc1` (configuration not stated), the cell number change came out at 7.11%. Also, the AC50 under setting [2] is 6.51 µM [rising, single point]. Besides, the AC50 under setting [1] is 0.366 µM [rising, full curve].
As to `COc1cc(NC(=O)COc2ccc3c(C)cc(=O)oc3c2C)cc(OC)c1OC`, under setting [2], the AC50 is 2.06 µM [rising, single point].
Consider `COCCNCC(=O)Nc1ccc(C)c(S(=O)(=O)N2CCCCC2)c1`, for which the cell number change was -10.6%.
`COc1ccc2cc(C(=O)NC3CCCCC3)c(=O)oc2c1`: the cell number change was determined as 4.87%. In addition, the AC50 under setting [1] is 1.84 µM [rising, partial curve, poor fit].
Regarding `O=C(Nc1ccc(Br)cc1)c1ccccc1Br`, the cell number change was -15.5%. In addition, the AC50 under setting [1] is 6.51 µM [falling, single point].
On to `COC1CCN(Cc2c(C(=O)N3CCN(C4CCCCC4)CC3)nc3ccccn23)CC1`, for which the cell number change stood at 8.67%. Also, under setting [1], the concentration at half-maximal activity (AC50) was 2.91 µM [falling, full curve].
For the compound `CCc1noc2c1/C(=N\O)CC(c1ccccc1)C2` (configuration not stated), the cell number change was -9.14%.
In the case of `O=C(CSc1nnc(-c2ccccc2F)n1C1CC1)Nc1cccnc1Cl`, the AC50 under setting [2] is 4.61 µM [rising, single point].
In the case of `Cc1ccccc1OCC(=O)OCC(=O)N1CCc2ccccc21`, the cell number change was -20.5%. In addition, under setting [2], the AC50 was 0.058 µM [falling, full curve, poor fit].
Turning to `COc1ccc(NC(=O)N2CCCCCC2)cc1`, the AC50 is 0.00461 µM [falling, full curve, poor fit] under setting [2] and 0.00461 µM [falling, full curve, poor fit] under setting [1].
`Cn1cccc1CNC1CCCC1`: the cell number change is 0.414%. For the same compound, the AC50 under setting [1] was 6.51 µM [falling, single point].
With `COc1ccc(OCC(=O)NNC(=O)c2c(-c3ccccc3Cl)noc2C)cc1`, the cell number change was determined as 29.7%.
On to `NS(=O)(=O)c1ccc(N2C(=O)C3C4CC(C(Br)C4Br)C3C2=O)cc1` (configuration not stated), for which the AC50 under setting [1] is 0.731 µM [rising, full curve, poor fit].
In the case of `CN(C)c1ccc(C(=O)/C=C/c2ccco2)cc1`, the cell number change is 66%. The AC50 under setting [2] was 9.2 µM [rising, partial curve]. Also, under setting [1], the AC50 was 6.51 µM [rising, single point].
On to `CCN(CC)S(=O)(=O)c1cc(C(=O)OCC(=O)c2ccc3c(c2)NC(=O)CO3)ccc1Cl`, for which the cell number change was -31.4%. Under setting [2], the AC50 is 0.164 µM [falling, full curve]. Besides, under setting [1], the AC50 was 0.13 µM [rising, partial curve, poor fit].
As for `Cc1ccc(N(C(=O)CCl)C(C(=O)NC2CCCCC2)c2cccnc2)cc1C` (configuration not stated), the cell number change was -0.141%. Besides, the AC50 under setting [1] was 32.6 µM [falling, single point].
Take `O=C(NC1=NC2CCCCC2N1)c1ccccc1` (configuration not stated): the cell number change came to 0.271%. In addition, under setting [1], the AC50 was 6.51 µM [falling, full curve, poor fit].
Take `O=C(c1cc(-c2ccc(F)cc2)no1)N1CCN(Cc2ccc3c(c2)OCO3)CC1`: the cell number change turned out to be 7.78%. Under setting [1], the AC50 was 32.6 µM [rising, single point].
`CCc1ccc(C(=O)COC(=O)CCc2nc3ccccc3c(=O)[nH]2)cc1`: under setting [1], the AC50 was 7.31 µM [rising, partial curve].
With `O=C(Nc1ccccc1)N1CCCN(c2nccc(C(F)(F)F)n2)CC1`, the cell number change turned out to be 3.7%. Besides, under setting [2], the AC50 is 0.461 µM [falling, full curve]. Further, the AC50 under setting [1] is 0.82 µM [falling, single point].
Turning to `COC(=O)c1sccc1NC(=O)Nc1ccccc1C`, the cell number change stood at 0.578%.
On the same count and under the same terms, the result for `CCOC(=O)C1(Cc2cccc(F)c2)CCN(C2CCOCC2)CC1` reads -2.28%.
Regarding `COc1ccc2cc(C(=O)NCCCN3CCCC3=O)[nH]c2c1`, the cell number change was -6.87%.
For `Cc1cccc(Nc2ncnc3c2cnn3Cc2ccccc2)c1`, the cell number change amounted to 99%. For the same compound, the AC50 under setting [2] is 14.6 µM [rising, partial curve]. In addition, the AC50 under setting [1] is 23.1 µM [rising, partial curve].
With `CCOc1ccc(N2C(=O)CC(N3CCN(C4CCc5ccccc5C4)CC3)C2=O)cc1` (configuration not stated), the cell number change was -11.3%.
Consider `O=C(NCc1ccco1)C(c1cccs1)N(Cc1ccccc1)C(=O)Cn1nnc2ccccc21` (configuration not stated), for which the AC50 under setting [2] is 5.8 µM [rising, single point] and the AC50 under setting [1] is 0.082 µM [falling, full curve, poor fit].
On to `O=C(O)CCNC(=O)c1cncc(Br)c1`, for which the cell number change is -6.71%. The AC50 under setting [1] was 3.26 µM [falling, single point].
For the compound `CCOC(=O)c1ccc(N2C(=O)c3n[nH]c(C)c3C2c2ccc(O)cc2)cc1` (configuration not stated), the cell number change turned out to be 13.8%. Also, the AC50 under setting [1] is 0.259 µM [rising, full curve].

The values above are taken from PubChem BioAssay AID2685 (National Center for Advancing Translational Sciences (NCATS), 2010).
